Data published in US10525187B2, “Apparatus for removing protein-bound toxins from blood plasma” (Fresenius Medical Care Deutschland GmbH, priority 2012, dated 2020).
Values joined by “and” are separate entries in the source; they are usually repeats but may differ in a detail not shown here. Identical values can stand only once. Counter-ions that a name gives are not always drawn.

Test system: protein-bound uremic toxins
Assay: Suitable frequencies in the HF field for separation of protein-bound uremic toxins (Embodiment 3, Table 1)
Type: in vitro ADME

Row | Compound | Suitable frequencies in the HF field (ranges at which the maximum separation effect was determined) (E field 80-120 MHz) | Suitable frequencies in the HF field (ranges at which the maximum separation effect was determined) (E field 120-170 MHz)
1 | Cc1ccc(OS(=O)(=O)O)cc1 [pCRS] | 110 MHz and 110-111 MHz and 111 MHz | 151-152 MHz and 140-141 MHz
2 | O=S(=O)(O)Oc1c[nH]c2ccccc12 [IDS, indoxyl sulfate] | 110 MHz and 110-111 MHz and 111 MHz | 140-141 MHz
